In EP0558245A1, “Heterobicyclic compounds as antagogists of alpha-1 adrenergic and SHT1A receptors” (priority 1992, dated 1993):
At least one structure is not confirmed: it was looked up by name or label, or the drawing left a doubt.

Biological target: α₁ receptors
Test: [3H]prazosin binding (α1 receptors), rat cerebral cortex membranes
Conditions: rat cerebral cortex crude membranes, [3H]prazosin 0.35 nM, 25°C 30 min; read-out: Receptor Binding IC50 (nM) α1

Q: Which IC50 does the source give for `Cc1c(-c2ccccc2)oc2c(C(=O)NCCCNCC3CCc4ccccc4C3=O)cccc2c1=O` (stereo not shown) [Example 65, 8-{3-[(3,4-dihydro-1-oxo-2H-naphthyl)-methylamino]-propylcarbamoyl}-3-methyl-4-oxo-2-phenyl-4H-1-benzopyran methanesulphonate] here?
A: 113 nM
